The record followed here is patent US20230235090A1.

These are yes or no findings as the source states them, for the method shown. Some binding calls cover weakened binding; strength is not graded here.

The test has as its target cynomolgus monkey B7-H4 (cynomolgus monkey). Description: FACS on CHO-K1/cyno B7-H4 cells.

B1: PR001476 (antibody, human IgG1, kappa, V domains shown)
VH: QVQLVESGGGVVQPGRSLRLSCAASGFTFRSFGMHWVRQAPGKGLEWVAVISYDGSNEYYADSVKGRFIISRDNSKDTLYLQMNSLRAGDTAVYYCAKGGGLRWYFAYWGQGTLVTVSS
VL: EIVMTQSPATLSVSPGERATLSCRASQSISSNLGWYQQKPGQAPRLLIYGASTRATGIPARFSGSGSGTEFTLTISSLQSEDFAVYYCQQYNSWPPLTFGGGTKVEIKR
Regarding B1, the binding entry is recorded as “binds”.
